In PMC6028644:
These are yes or no findings as the source states them, for the method shown. Binding seen in cells or lysates may run through a third protein. Some binding calls cover weakened binding; strength is not graded here.

Sequences of proteins named here, by UniProt entry; tags and fusion partners are left off. Residues count along the entry.
UniProt P18418, residues 18-416: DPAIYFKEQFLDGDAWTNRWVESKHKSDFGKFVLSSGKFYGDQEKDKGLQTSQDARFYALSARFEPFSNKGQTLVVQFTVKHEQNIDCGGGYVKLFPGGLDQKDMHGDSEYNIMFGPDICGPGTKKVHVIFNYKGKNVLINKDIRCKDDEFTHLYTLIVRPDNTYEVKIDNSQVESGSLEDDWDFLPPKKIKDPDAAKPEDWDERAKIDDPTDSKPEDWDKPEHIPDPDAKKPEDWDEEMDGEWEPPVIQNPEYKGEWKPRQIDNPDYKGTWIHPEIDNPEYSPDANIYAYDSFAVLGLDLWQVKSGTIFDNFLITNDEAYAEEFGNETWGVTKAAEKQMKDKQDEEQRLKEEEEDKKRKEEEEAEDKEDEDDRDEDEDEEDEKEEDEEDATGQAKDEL
UniProt P24368, residues 34-216: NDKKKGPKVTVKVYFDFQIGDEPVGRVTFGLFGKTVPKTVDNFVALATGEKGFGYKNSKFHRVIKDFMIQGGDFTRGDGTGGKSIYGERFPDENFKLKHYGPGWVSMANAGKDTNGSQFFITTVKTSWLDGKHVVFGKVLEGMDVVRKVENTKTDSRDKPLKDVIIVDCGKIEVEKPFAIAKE

Columns and labels:
[1] = biological target: T1, calcium-modulating cyclophilin ligand (CAML), endogenous in BRL-3A rat hepatocytes (rat (endogenous in BRL-3A)) (UniProt Q6DGG9); assay: co-IP; endogenous CAML with endogenous cyclophilin B or calreticulin in BRL-3A lysate, precipitated in either direction; cells transfected with pcDNA-control, pcDNA-ΔTM1-Flag or Tmub1-siRNA (for calreticulin also pcDNA-TMUB1-Flag), harvested on day 2; lysis buffer 20 mM Tris-HCl pH 7.5, 500 mM NaCl, 2% Triton X-100; overnight at 4 °C
T1 sequence: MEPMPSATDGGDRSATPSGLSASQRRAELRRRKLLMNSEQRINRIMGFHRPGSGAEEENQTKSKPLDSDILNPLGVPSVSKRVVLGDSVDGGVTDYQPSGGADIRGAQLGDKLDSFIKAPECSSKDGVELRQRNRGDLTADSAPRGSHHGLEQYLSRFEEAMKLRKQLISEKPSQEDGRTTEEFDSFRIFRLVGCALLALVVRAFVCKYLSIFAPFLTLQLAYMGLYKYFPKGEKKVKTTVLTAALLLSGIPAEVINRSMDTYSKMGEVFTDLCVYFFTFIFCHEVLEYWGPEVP

[2] = biological target: T1, calcium-modulating cyclophilin ligand (CAML), endogenous in BRL-3A rat hepatocytes (rat (endogenous in BRL-3A)); assay: condition: only with overexpression of TMUB1 (pcDNA-TMUB1-Flag); co-IP; endogenous CAML with endogenous cyclophilin B in lysate of BRL-3A cells overexpressing TMUB1 (pcDNA-TMUB1-Flag), precipitated in either direction; lysis buffer 20 mM Tris-HCl pH 7.5, 500 mM NaCl, 2% Triton X-100; overnight at 4 °C

binding [1]	binding [2]	Substance
binds		calreticulin, endogenous in BRL-3A rat hepatocytes (from UniProt P18418 18-416)
binds	no binding	cyclophilin B, endogenous in BRL-3A rat hepatocytes (from UniProt P24368 34-216)
